Results taken from patent publication US6890361B2, “Modification of printed and dyed materials” (Novozymes North America, Inc., priority 2001, dated 2005).

Test: Washfastness (AATCC TM 61-2A) of disperse-dyed polyester fabric after afterclearing
Conditions: AATCC Chromatic Transference Scale 1~5, 1 heaviest color transfer, 5 no color transfer, afterclearing 20 minutes at 70° C.

SMILES: [Na+].[OH-] [sodium hydroxide]
- staining evaluation grade (Acetate) (Acetate): 3.5
- staining evaluation grade (Nylon) (Nylon): 3.5
- staining evaluation grade (silk) (silk): 3.0
